Source: article PMC6331586, “Rapid determination of quaternary protein structures in complex biological samples” (Nature Communications, 2019)
Results are given in words; binding and its absence hold for the method and conditions named. In cells and extracts the contact can be indirect. Binding calls can cover weak binding; strength is not graded here.

By UniProt entry, the sequences of proteins in these tests, tags left out. Residues count along the entry.
UniProt P01009, residues 25-418: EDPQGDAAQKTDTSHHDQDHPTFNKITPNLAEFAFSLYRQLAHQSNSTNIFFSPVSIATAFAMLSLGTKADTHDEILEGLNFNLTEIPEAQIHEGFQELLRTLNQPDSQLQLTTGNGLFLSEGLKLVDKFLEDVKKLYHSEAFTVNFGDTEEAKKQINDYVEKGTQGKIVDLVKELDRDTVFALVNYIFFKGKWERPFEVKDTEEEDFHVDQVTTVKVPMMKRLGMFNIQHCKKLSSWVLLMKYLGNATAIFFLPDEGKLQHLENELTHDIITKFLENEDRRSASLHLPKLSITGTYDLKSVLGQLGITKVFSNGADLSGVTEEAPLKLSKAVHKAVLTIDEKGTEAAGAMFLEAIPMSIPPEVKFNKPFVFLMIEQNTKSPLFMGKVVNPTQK
UniProt P02768, residues 25-609: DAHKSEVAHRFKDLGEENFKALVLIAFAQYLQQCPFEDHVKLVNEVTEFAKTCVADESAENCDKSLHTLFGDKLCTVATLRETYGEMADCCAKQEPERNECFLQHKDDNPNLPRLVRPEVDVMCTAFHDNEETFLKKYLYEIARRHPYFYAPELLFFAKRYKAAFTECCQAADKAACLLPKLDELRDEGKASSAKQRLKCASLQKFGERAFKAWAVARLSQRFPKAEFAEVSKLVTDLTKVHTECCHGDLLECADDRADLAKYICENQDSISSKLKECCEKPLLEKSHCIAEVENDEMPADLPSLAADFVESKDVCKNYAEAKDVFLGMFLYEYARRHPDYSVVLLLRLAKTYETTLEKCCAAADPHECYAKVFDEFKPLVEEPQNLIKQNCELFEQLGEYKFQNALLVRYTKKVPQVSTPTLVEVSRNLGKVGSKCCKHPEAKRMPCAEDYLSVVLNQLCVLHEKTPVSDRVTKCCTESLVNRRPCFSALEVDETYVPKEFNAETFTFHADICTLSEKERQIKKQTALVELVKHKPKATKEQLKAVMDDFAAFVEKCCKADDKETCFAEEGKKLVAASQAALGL

Target: M1 protein on the surface of live S. pyogenes strain SF370 (S. pyogenes strain SF370 (endogenous)) (UniProt Q99XV0)
Experiment: cross-linking

alpha-1-antitrypsin (from UniProt P01009 25-418)
binding: no binding

human serum albumin (from UniProt P02768 25-609)
binding: binds
